PubChem BioAssay AID540335 (Broad Institute, 2011)
The whole screen tested about 1,300 compounds, of which about 270 (21%) were called active.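 How the source made its calls: active means dose-dependent rise or fall in viability, either side of zero, with half-maximal concentration at or below a set limit; inconclusive means flat curve at 30 to 70% viability loss, or poor fit; inactive means flat within 30% either way, or potency beyond limit.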 The list shows a part of the results. Potency and affinity values are given separately.

Assay: proliferation inhibition in MITF-low A375 cells – cell-based, cherry-pick samples, set 2, counter-screen for MITF modulator project, dose response (AID 540335);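 further: A375 human melanoma cells which do not depend on MITF; 0% = median of neutral control wells and 100% = double that signal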
Details: CellTiter-Glo ATP luminescence, 24 h; at 35 µM (top of the series)

SMILES | activity change, negative = decreased viability
CCOC(=O)c1[nH]cnc1N=Nc1c(O)ccc2ccccc12 | inactive: -38%
COc1ccc(-n2c(C)cc(C(=O)CCl)c2C)cc1 | inactive: -8.15%
CC(C)N=c1c([N+](=O)[O-])nn(C)n1O | inactive: 0.56%
CC(=O)OCCCNc1cc(Sc2ccc(Cl)cc2)c2nonc2c1[N+](=O)[O-] | inactive: -14.9%
COc1cc2c(cc1OC)C(c1ccccc1)N(C(=O)CCl)CC2 (stereo not given) | inactive: -29.7%
Cc1ccc(C#CC[N+]2(CC#Cc3ccc(C)cc3)CCCCC2)cc1 | inactive: -31.7%
CCc1nc2oc3ccc(C)cc3c(=O)c2cc1C(=O)OC | inactive: 0.143%
O=C(N/N=C/c1ccc([N+](=O)[O-])s1)C(O)c1ccccc1 (stereo not given) | inactive: -11.8%
CC(=O)CSc1ccc(-c2nc3cc(C)c(C)cc3[nH]2)cn1 | inactive: 0.812%
Cc1cccc(N(O)C(=O)Nc2cccc(Cl)c2)c1 | inactive: 2.44%
Cc1ccc(C)c(C(=O)Cn2ncc(Cl)c(Cl)c2=O)c1 | inactive: 78.1%
CC(C)(C)c1cc(NCCCn2ccnc2)n2ncc(-c3ccccc3)c2n1 | inactive: -23.5%
CCOC(=O)CSC1=NC(=O)/C(=C\c2ccc(OC(C)=O)cc2)S1 | inactive: -22.6%
CC1(C)Cc2c(sc(NC(=O)c3ccc4ncsc4c3)c2C(N)=O)C(C)(C)N1 | inactive: -11.1%
Clc1ccc(-c2nc(-c3ccncc3)no2)c(Cl)c1 | inactive: 4.85%
O=C(N/N=C/c1ccccc1)c1ccco1 | inactive: -0.119%
COc1cccc(/C=N/NC(=O)c2cccs2)c1 | inactive: 3.42%
Cc1ccc2nc(NC(=O)CCCC(=O)O)sc2c1 | inactive: 12%
CCCCN1CCc2c1nc1ccc(Br)cc1c2N | inactive: -11.7%
NCCCNc1nc(N)c([N+](=O)[O-])c(NC2CCCCC2)n1 | inactive: -24%
COc1ccc(COC(=O)c2n[nH]c3ccccc23)cc1F | inactive: 6.51%
O=C(CCl)N1N=C(c2ccco2)CC1c1cccs1 (stereo not given) | inactive: -31.6%
O=C(Nc1ccccc1F)C(=O)Nc1cccc2ccccc12 | inactive: -6.03%
COc1ccc(NCc2nc3ccccc3n2C)cc1 | inactive: -15.4%
N#Cc1cc2c(nc1SC1CC(=O)N(c3ccccc3)C1=O)CCC2 (stereo not given) | inactive: 2.48%

SMILES | activity change, negative = decreased viability
c1ccc(C[n+]2cccc3c4ccccc4ccc32)cc1 | inactive: -9.04%
CCOCCCNC(=O)/C(C#N)=C/c1ccc([N+](=O)[O-])o1 | inactive: 4.45%
O=C(N/N=C/c1ccc(F)cc1)c1c(O)c2ccccc2[nH]c1=O | inactive: -19.2%
COCCNC(=O)c1cc2sc3ccccc3c2s1 | inactive: 8.96%
CC1CCCCC1NC(=O)/C(C#N)=C/c1ccccc1F (stereo not given) | inactive: -7.44%
O=C(N/N=C/c1ccc([N+](=O)[O-])s1)c1cccc(Br)c1 | inactive: -11.5%
O=C(NC(=S)Nc1ccccn1)c1cccc([N+](=O)[O-])c1 | inactive: 6.18%
O=C(Cc1ccc2c(c1)OCO2)NN=Cc1ccc([N+](=O)[O-])o1 | inactive: -3.36%
O=C(O)c1cc2ccccc2c(N=Nc2cccnc2)c1O | inactive: -5.09%
COc1ccccc1NC(=O)c1nc(S(=O)(=O)Cc2ccccc2)ncc1Cl | inactive: -24.6%
CCCOC(=O)c1ccc(NC(=O)C2CCCO2)cc1 (stereo not given) | inactive: -5.07%
Cc1ccc(NC(=O)c2ccc([N+](=O)[O-])s2)cc1S(=O)(=O)N1CCOCC1 | inactive: -13.4%
Cc1ccc2nc(-c3cccnc3)oc2c1 | inactive: -0.651%
O=C(C[n+]1cccc2ccccc21)c1ccc([N+](=O)[O-])cc1 | inactive: -6.09%
CC(=O)c1c(C)[nH]c(C(=O)Nc2ccc(C)c(C)c2)c1C | inactive: 1.51%
CC(C)c1ccc(/C=N/Nc2ccc(C(=O)O)cc2)cc1 | inactive: 10%
CC(C)N=C(NS(=O)(=O)c1ccccc1)C(Cl)(Cl)Cl | inactive: 2.01%
CCCC(=O)N1CCN(c2ccc(NC(=O)c3ccc([N+](=O)[O-])o3)cc2)CC1 | inactive: 11.4%
COc1ccc(-n2cc(-c3ccc(C)cc3)[n+]3c2SCC3)cc1 | inactive: -17.9%
COc1ccc2cc3cc(C(=O)NCCc4ccc(OC)c(OC)c4)oc3nc2c1 | inactive: -2.65%
O=C(Nc1ccccc1Cl)c1cc(=O)c2ccccc2o1 | inactive: 8.01%
Cc1cc2ncn(/N=C/c3ccc([N+](=O)[O-])o3)c2cc1C | inactive: -15.1%
Cc1cc(NC(=O)c2ccc([N+](=O)[O-])o2)ccc1NC(=O)c1ccco1 | inactive: -30.9%
Cc1ccc(OCC(=O)Nc2cccc(C)n2)c(C)c1 | inactive: 4.74%
CCOC(=O)/C=c1\s/c(=C\c2ccc3cc(OC)ccc3c2)c(=O)n1CC(=O)NCC1CCCO1 (stereo not given) | inactive: -36.3%

Random excerpt: five compounds from above
SMILES | activity change, negative = decreased viability
Cc1cc(NC(=O)c2ccc([N+](=O)[O-])o2)ccc1NC(=O)c1ccco1 | inactive: -30.9%
CCOC(=O)/C=c1\s/c(=C\c2ccc3cc(OC)ccc3c2)c(=O)n1CC(=O)NCC1CCCO1 (stereo not given) | inactive: -36.3%
COc1ccccc1NC(=O)c1nc(S(=O)(=O)Cc2ccccc2)ncc1Cl | inactive: -24.6%
COCCNC(=O)c1cc2sc3ccccc3c2s1 | inactive: 8.96%
CC(C)c1ccc(/C=N/Nc2ccc(C(=O)O)cc2)cc1 | inactive: 10%

Continuation:

SMILES | activity change, negative = decreased viability
c1ccc(Cc2cc(-c3ccccc3)on2)cc1 | inactive: 7.4%
Cc1[nH]n(-c2ccccc2)c(=O)c1N=Nc1cccc(C(=O)O)c1 | inactive: 6.87%
N#Cc1cnc2sc3ccccc3n2c1=N | inactive: 5.98%
O=C(Nc1ccc2c(c1)OCCO2)c1coc2ccccc2c1=O | inactive: -0.104%
CCOC(=O)c1ccc(NC(=O)c2ccnn2C)cc1 | inactive: 9.45%
O=[N+]([O-])/C=C\c1ccc(N2CCOCC2)cc1 | inactive: -34%
N/C(=N\OC(=O)c1cccc(F)c1)c1cccc([N+](=O)[O-])c1 | inactive: 3.72%
COc1cc2c(cc1OC)C(C)N(S(=O)(=O)c1cnc(Cl)c(Cl)c1)CC2 (stereo not given) | inactive: -19.7%
Cc1ccc2c(C(=O)CCl)c(C)[nH]c2c1 | inactive: -16.4%
O=C(Cn1cnc2ccccc2c1=O)Nc1ccc2c(c1)OCCO2 | inactive: -0.724%
CC(OC(=O)c1ccc([N+](=O)[O-])s1)C(=O)NC1CCCCC1C (stereo not given) | inactive: -8.84%
CCOC(=O)c1cn2nc(Oc3ccccc3)ccc2n1 | inactive: -4.82%
COc1ccc(NC(=O)c2scc(S(=O)(=O)C(C)C)c2N)cc1 | inactive: 0.489%
Cc1cc(C(=O)Nc2ccc([N+](=O)[O-])cn2)cs1 | inactive: -0.268%
Nc1ccccc1SC1CC(=O)N(c2ccc3c(c2)OCCO3)C1=O (stereo not given) | inactive: 6.18%
CCCOCc1ccc(O)c2ncccc12 | inactive: -26.4%
ClC1(Cl)CC1CSc1nnc(-c2ccncc2)o1 (stereo not given) | inactive: 11.6%
CC(C)CC(=O)NC(c1cccs1)c1ccc2cccnc2c1O (stereo not given) | inactive: -35.5%
Cc1cc(Br)ccc1NC(=O)CNC(=O)Cn1ncc(Cl)c(Cl)c1=O | inactive: -5.62%
CCOc1ccc(C(=O)Nc2cccc(C(=O)O)c2C)cc1Cl | inactive: -2.49%
CCOc1ccc(NC(=O)c2ccc3snnc3c2)cc1 | inactive: -3.32%
CC(=O)Nc1ccc(-c2nc3ccccc3o2)cc1 | inactive: 8.49%
COc1cc(C2C(C#N)=C(N)Oc3cc4c(cc32)OCO4)cc(OC)c1OC (stereo not given) | inactive: 8.17%
O=C(/C=C/c1ccc([N+](=O)[O-])s1)N1CCCCC1 | inactive: -9.74%
CC1=NOC(=O)/C1=C\c1ccc(-c2cccc(Cl)c2)o1 | inactive: -5.17%

SMILES | activity change, negative = decreased viability
COC(=O)CCS(=O)(=O)c1nc(-c2ccccc2)cc(C(F)(F)F)n1 | inactive: 47.7%
O=C(Nc1nc(-c2ccccn2)cs1)c1ccccc1-n1cnnn1 | inactive: -39.2%
CN(C)c1cc[n+](CC(=O)c2ccc(-c3ccccc3)cc2)cc1 | inactive: -14.8%
C=Cc1ncc(OC)c2c1[nH]c1ccccc12 | inactive: 14.5%
Cc1ccc(NC(=O)c2ccccc2)cc1 | inactive: 3.62%
CC(C)(C)c1ccc(C(=O)Nc2ccc(CC(=O)O)cc2)o1 | inactive: -10.4%
O=C(C#Cc1ccccc1)c1cccc([N+](=O)[O-])c1 | inactive: 3.14%
O=C(Cn1ncc(Cl)c(Cl)c1=O)N1CCOCC1 | inactive: 38.5%
O=C(Nc1ccc(Cl)cc1)N1CC=CCC1 | inactive: 6.04%
CCc1ccc(NC2=CC(=O)C(=O)c3ccccc32)cc1 | inactive: -32.6%
Cc1nc(C)c(C(=O)N/N=C/c2cc(Br)ccc2O)s1 | inactive: -27.5%
COc1ccc(NC(=O)CCC(=O)N/N=C/c2ccc([N+](=O)[O-])s2)cc1 | inactive: -23.2%
O=C(NC1CCCCCC1)c1cc2ccccc2oc1=O | inactive: -11.8%
CCCN1C(=O)c2ccc(C(=O)Nc3cc(C)ccc3O)cc2C1=O | inactive: -0.588%
Cc1cc(NCCCn2ccnc2)n2ncc(-c3ccccc3)c2n1 | inactive: -8.96%
CCOc1cc(NC(=O)CCl)c(OCC)cc1NC(=O)CCl | inactive: -7.25%
Cc1cc(C(=O)O/N=C(\N)c2ccncc2)ccc1[N+](=O)[O-] | inactive: 5.55%
CC(C)=CCc1c(O)ccc2c1OC(c1ccc(O)c(O)c1)CC2=O (stereo not given) | inactive: 3.17%
CCC(=O)Nc1cc(C(=O)OCC(=O)c2ccccc2Cl)ccc1C | inactive: 9.78%
CCOC(=O)c1sc(NC(=O)Nc2ccc(Cl)cc2)nc1C | inactive: 6.69%
CCOc1cc(/C=C\[N+](=O)[O-])ccc1OCC(=O)N1CCOCC1 | inactive: -14.2%
COc1ccccc1NC(=O)c1cnc(SCC(=O)NCC2CCCO2)n(C)c1=O (stereo not given) | inactive: 0.027%
O=C(Cn1nnc(-c2ccccc2Cl)n1)N1CCCCC1 | inactive: 1.74%
Cc1cc(NC(=O)c2ccc(Cl)cc2Cl)no1 | inactive: 8.99%
Clc1nccnc1N/N=C/c1ccc(Br)cc1 | inactive: -29.2%
